Experimental data published in PMC7418333.
Results are given in words; binding and its absence hold for the method and conditions named. In cells and extracts the contact can be indirect. Some binding calls cover weakened binding; strength is not graded here.

Amino acid sequences for entries named in this document (tags omitted). A change or cut given only in a name is not applied to a line headed by its entry.
UniProt Q9CU62: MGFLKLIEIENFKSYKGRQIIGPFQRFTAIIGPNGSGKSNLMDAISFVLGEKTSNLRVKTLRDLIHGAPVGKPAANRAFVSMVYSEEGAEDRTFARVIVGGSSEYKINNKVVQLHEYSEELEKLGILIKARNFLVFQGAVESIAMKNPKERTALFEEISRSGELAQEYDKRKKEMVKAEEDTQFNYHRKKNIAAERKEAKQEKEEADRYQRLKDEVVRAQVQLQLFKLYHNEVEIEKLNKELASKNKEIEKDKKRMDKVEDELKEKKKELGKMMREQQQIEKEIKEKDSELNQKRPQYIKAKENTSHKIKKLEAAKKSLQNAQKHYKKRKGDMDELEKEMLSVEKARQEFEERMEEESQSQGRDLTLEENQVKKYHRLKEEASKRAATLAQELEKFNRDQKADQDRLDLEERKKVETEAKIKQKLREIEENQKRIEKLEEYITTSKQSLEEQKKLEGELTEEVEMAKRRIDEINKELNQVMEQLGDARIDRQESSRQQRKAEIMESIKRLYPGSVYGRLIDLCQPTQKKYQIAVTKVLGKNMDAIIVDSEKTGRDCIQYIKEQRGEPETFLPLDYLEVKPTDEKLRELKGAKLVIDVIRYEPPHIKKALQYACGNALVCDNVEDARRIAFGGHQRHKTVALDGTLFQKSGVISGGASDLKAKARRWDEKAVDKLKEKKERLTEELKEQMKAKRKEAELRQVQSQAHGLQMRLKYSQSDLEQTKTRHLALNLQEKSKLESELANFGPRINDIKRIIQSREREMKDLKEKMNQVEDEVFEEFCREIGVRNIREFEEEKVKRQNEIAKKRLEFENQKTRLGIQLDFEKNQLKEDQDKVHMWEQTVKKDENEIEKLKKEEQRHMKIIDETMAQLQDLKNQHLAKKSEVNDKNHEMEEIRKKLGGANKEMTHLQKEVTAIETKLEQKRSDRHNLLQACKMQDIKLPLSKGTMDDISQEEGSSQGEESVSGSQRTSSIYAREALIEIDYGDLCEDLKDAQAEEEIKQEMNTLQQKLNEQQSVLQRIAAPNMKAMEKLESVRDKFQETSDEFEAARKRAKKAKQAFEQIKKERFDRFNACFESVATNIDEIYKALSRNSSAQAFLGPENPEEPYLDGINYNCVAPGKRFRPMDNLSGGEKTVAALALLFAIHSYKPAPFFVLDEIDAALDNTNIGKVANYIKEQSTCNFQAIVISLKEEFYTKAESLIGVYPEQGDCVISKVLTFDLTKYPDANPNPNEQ

Target: T1, CTCF (mouse (endogenous in mESCs v6.5)) (UniProt Q61164)
T1 sequence: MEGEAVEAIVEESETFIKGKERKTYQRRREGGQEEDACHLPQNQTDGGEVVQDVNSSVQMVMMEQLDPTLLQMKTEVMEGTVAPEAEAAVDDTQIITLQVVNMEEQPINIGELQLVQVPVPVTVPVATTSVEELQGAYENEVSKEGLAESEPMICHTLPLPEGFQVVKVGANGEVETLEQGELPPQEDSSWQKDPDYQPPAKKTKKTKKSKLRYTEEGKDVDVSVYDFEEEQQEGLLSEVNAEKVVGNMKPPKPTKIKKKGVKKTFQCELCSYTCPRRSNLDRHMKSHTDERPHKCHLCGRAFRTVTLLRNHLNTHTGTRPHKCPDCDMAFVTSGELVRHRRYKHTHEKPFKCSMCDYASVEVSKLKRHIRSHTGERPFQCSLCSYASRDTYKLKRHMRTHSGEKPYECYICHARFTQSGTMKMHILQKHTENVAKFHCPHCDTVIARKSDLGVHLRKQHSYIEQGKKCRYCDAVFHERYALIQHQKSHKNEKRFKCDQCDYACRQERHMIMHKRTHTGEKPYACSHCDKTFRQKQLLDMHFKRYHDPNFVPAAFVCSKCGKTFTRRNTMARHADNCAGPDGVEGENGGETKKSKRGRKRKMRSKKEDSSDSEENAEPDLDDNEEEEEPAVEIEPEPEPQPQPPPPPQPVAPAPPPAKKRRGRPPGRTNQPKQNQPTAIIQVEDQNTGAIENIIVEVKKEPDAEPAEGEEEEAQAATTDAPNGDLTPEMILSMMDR
Experiment: co-IP; CTCF IP then western blot for cohesin, from mESC nuclear lysates digested with Benzonase; four conditions: wild-type siGLO, wild-type siStag1, Stag2-/- siGLO, Stag2-/- siStag1 (48 h siRNA)

binding: binds
Substance: cohesin (core cohesin ring) (from UniProt Q9CU62 1-1233; Q9CW03 1-1217; Q61550 1-635) (complex)
